The other results are listed elsewhere or left out.
Tests used:
Test in all cases: glycan array binding signal (z-score within array); higher = stronger binding
Settings in all cases: glycan notation: IUPAC condensed, linker removed
[1] = molecular target: Man(a1-2)Man(a1-3)[Man(a1-2)Man(a1-6)]Man(a1-6)[Man(a1-2)Man(a1-2)Man(a1-3)]Man
In short: (§1)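 The Consortium for Functional Glycomics database supplied 3228 glycan arrays, of which those lacking an available protein sequence were dropped. The binding signal, a within-array Z-score, was averaged across arrays of the same protein sequence and across linkers. Negative scores can be read as non-binding.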

[2] = molecular target: Man(a1-2)Man(a1-3)[Man(a1-2)Man(a1-6)]Man(a1-6)[Man(a1-2)Man(a1-2)Man(a1-3)]Man(b1-4)GlcNAc(b1-4)GlcNAc
In short: as §1

[3] = molecular target: Man(a1-2)Man(a1-3)[Man(a1-6)]Man(a1-6)[Man(a1-2)Man(a1-3)]Man(b1-4)GlcNAc(b1-4)GlcNAc
In short: as §1

[4] = molecular target: Man(a1-2)Man(a1-6)[Man(a1-3)]Man(a1-6)[Man(a1-2)Man(a1-2)Man(a1-3)]Man
In short: as §1

[5] = molecular target: Man(a1-2)Man(a1-6)[Man(a1-3)]Man(a1-6)[Man(a1-2)Man(a1-2)Man(a1-3)]Man(b1-4)GlcNAc(b1-4)GlcNAc
In short: as §1

[6] = molecular target: Man(a1-3)[Man(a1-6)]Man
In short: as §1

[7] = molecular target: Man(a1-3)[Man(a1-6)]Man(a1-6)[Man(a1-2)Man(a1-3)]Man(b1-4)GlcNAc(b1-4)GlcNAc
In short: as §1

[8] = molecular target: Man(a1-3)[Man(a1-6)]Man(a1-6)[Man(a1-3)]Man
In short: as §1

[9] = molecular target: Man(a1-3)[Man(a1-6)]Man(a1-6)[Man(a1-3)]Man(b1-4)GlcNAc(b1-4)GlcNAc
In short: as §1

[10] = molecular target: Man(a1-3)[Man(a1-6)]Man(b1-4)GlcNAc(b1-4)GlcNAc
In short: as §1

[11] = molecular target: Man(a1-3)[Man(a1-6)]Man(b1-4)GlcNAc(b1-4)[Fuc(a1-6)]GlcNAc
In short: as §1

[12] = molecular target: Man(a1-6)Man
In short: as §1

[13] = molecular target: Man(b1-4)GlcNAc
In short: as §1

[14] = molecular target: MurNAc(b1-4)GlcNAc
In short: as §1

[15] = molecular target: Neu5Ac(a2-3)Gal
In short: as §1

[16] = molecular target: Neu5Ac(a2-3)Gal(b1-3)GalNAc
In short: as §1

[17] = molecular target: Neu5Ac(a2-3)Gal(b1-3)GalNAc(b1-3)Gal(a1-4)Gal(b1-4)Glc
In short: as §1

[18] = molecular target: Neu5Ac(a2-3)Gal(b1-3)GalNAc(b1-4)[Neu5Ac(a2-3)]Gal(b1-4)Glc
In short: as §1

[19] = molecular target: Neu5Ac(a2-3)Gal(b1-3)GalNAc(b1-4)[Neu5Ac(a2-8)Neu5Ac(a2-3)]Gal(b1-4)Glc
In short: as §1

[20] = molecular target: Neu5Ac(a2-3)Gal(b1-3)GalNAc6S
In short: as §1

[21] = molecular target: Neu5Ac(a2-3)Gal(b1-3)GlcNAc
In short: as §1

[22] = molecular target: Neu5Ac(a2-3)Gal(b1-3)GlcNAc(b1-2)Man
In short: as §1

[23] = molecular target: Neu5Ac(a2-3)Gal(b1-3)GlcNAc(b1-2)Man(a1-3)[GlcNAc(b1-4)][Neu5Ac(a2-3)Gal(b1-3)GlcNAc(b1-2)Man(a1-6)]Man(b1-4)GlcNAc(b1-4)GlcNAc
In short: as §1

[24] = molecular target: Neu5Ac(a2-3)Gal(b1-3)GlcNAc(b1-2)Man(a1-3)[Neu5Ac(a2-3)Gal(b1-3)GlcNAc(b1-2)Man(a1-6)]Man(b1-4)GlcNAc(b1-4)GlcNAc
In short: as §1

[25] = molecular target: Neu5Ac(a2-3)Gal(b1-3)GlcNAc(b1-3)Gal(b1-3)GlcNAc
In short: as §1

[26] = molecular target: Neu5Ac(a2-3)Gal(b1-3)GlcNAc(b1-3)Gal(b1-4)GlcNAc
In short: as §1

[27] = molecular target: Neu5Ac(a2-3)Gal(b1-3)GlcNAc(b1-3)GalNAc
In short: as §1

[28] = molecular target: Neu5Ac(a2-3)Gal(b1-3)GlcNAc(b1-4)Gal(b1-4)Glc
In short: as §1

[29] = molecular target: Neu5Ac(a2-3)Gal(b1-3)GlcNAc(b1-6)GalNAc
In short: as §1

[30] = molecular target: Neu5Ac(a2-3)Gal(b1-3)GlcNAc6S
In short: as §1

[31] = molecular target: Neu5Ac(a2-3)Gal(b1-3)[Fuc(a1-4)]GlcNAc
In short: as §1

[32] = molecular target: Neu5Ac(a2-3)Gal(b1-3)[Fuc(a1-4)]GlcNAc(b1-3)Gal(b1-3)[Fuc(a1-4)]GlcNAc
In short: as §1

[33] = molecular target: Neu5Ac(a2-3)Gal(b1-3)[Fuc(a1-4)]GlcNAc(b1-3)Gal(b1-4)[Fuc(a1-3)]GlcNAc
In short: as §1

[34] = molecular target: Neu5Ac(a2-3)Gal(b1-3)[GlcNAc(b1-6)]GalNAc
In short: as §1

[35] = molecular target: Neu5Ac(a2-3)Gal(b1-3)[Neu5Ac(a2-6)]GalNAc
In short: as §1

[36] = molecular target: Neu5Ac(a2-3)Gal(b1-3)[Neu5Ac(a2-6)]GlcNAc(b1-3)[Fuc(a1-3)[Gal(b1-4)]GlcNAc(b1-6)]Gal(b1-4)Glc
In short: as §1

[37] = molecular target: Neu5Ac(a2-3)Gal(b1-3)]Neu5Ac(a2-3)Gal(b1-4)]GlcNAc
In short: as §1

B1: Tp0751, 83732 (protein)
chain: MSYYHHHHHHLESTSLYKKAGFQHGHVPPRRIPPHDTFGALPTAALPSNARDTAAHPSDTADNTSGSSTTTDPRSHGNAPPAPVGGAAQTHTQPPVQTAMRIALWNRATHGEQGALQHLLAGLWIQTEISPNSGDIHPLLFFDREHAEITFSRASVQEIFLVDSAHTHRKTVSFLTRNTAISSIRRRLEVTFESHEVIHVRAVEDVARLKIGSTSMWDGQYTRYHAGPASAPSP
B1 was tested, and the “glycan array binding signal (z-score)” value [1] was -0.436, the “glycan array binding signal (z-score)” value [2] was -0.176 and the “glycan array binding signal (z-score)” value [3] was -0.389. For the same binder, the “glycan array binding signal (z-score)” value [4] was -0.637, the “glycan array binding signal (z-score)” value [5] was 0.116 and the “glycan array binding signal (z-score)” value [6] was -0.744. The “glycan array binding signal (z-score)” value [7] was 0.61, the “glycan array binding signal (z-score)” value [8] was -0.699 and the “glycan array binding signal (z-score)” value [9] was -0.236. The “glycan array binding signal (z-score)” value [10] was -0.399, the “glycan array binding signal (z-score)” value [11] was -0.469 and the “glycan array binding signal (z-score)” value [12] was -0.392. The “glycan array binding signal (z-score)” value [13] was -0.599, the “glycan array binding signal (z-score)” value [14] was -0.603 and the “glycan array binding signal (z-score)” value [15] was -0.276. For the same binder, the “glycan array binding signal (z-score)” value [16] was -0.647, the “glycan array binding signal (z-score)” value [17] was 0.106 and the “glycan array binding signal (z-score)” value [18] was 0.006. The “glycan array binding signal (z-score)” value [19] was 0.616, the “glycan array binding signal (z-score)” value [20] was 0.237 and the “glycan array binding signal (z-score)” value [21] was -0.625. The “glycan array binding signal (z-score)” value [22] was -0.108, the “glycan array binding signal (z-score)” value [23] was -0.487 and the “glycan array binding signal (z-score)” value [24] was 0.814. For the same binder, the “glycan array binding signal (z-score)” value [25] was -0.225, the “glycan array binding signal (z-score)” value [26] was 0.058 and the “glycan array binding signal (z-score)” value [27] was -0.826. For the same binder, the “glycan array binding signal (z-score)” value [28] was -0.235, the “glycan array binding signal (z-score)” value [29] was -0.152 and the “glycan array binding signal (z-score)” value [30] was -0.504. The “glycan array binding signal (z-score)” value [31] was -0.061, the “glycan array binding signal (z-score)” value [32] was 0.714 and the “glycan array binding signal (z-score)” value [33] was 0.658. The “glycan array binding signal (z-score)” value [34] was 0.224, the “glycan array binding signal (z-score)” value [35] was -0.607 and the “glycan array binding signal (z-score)” value [36] was 0.642. For the same binder, the “glycan array binding signal (z-score)” value [37] was -0.301.

— the supplement of paper PMC8728848
